Where “and” joins values, the source holds several entries; their conditions need not be identical. Equal values may be shown once. About 6,100 (1.1%) of roughly 580,000 compounds were called active. The inconclusive results got no clear call from the source; some entries with a clear call stand among them for comparison. Calls come from the whole dose curve; as a rule, active = well fitted inhibition curve with a large enough effect; inconclusive = small, poorly fitted or top-dose-only effect, or another doubt; inactive = no such curve, though single readings can be large or run the other way. A potency beside an inconclusive call is a rough fit, not a confirmed value.
Molecular target: Polyunsaturated fatty acid lipoxygenase ALOX12 (Homo sapiens) (UniProt P18054)
Assay: Primary qHTS assay for inhibitors of human arachidonate 12S-lipoxygenase (ALOX12): Round 2
Settings: purified 12hLO, xylenol orange hydroperoxide absorbance; activity change, negative = inhibition: at 108 µM (top of the series) unless noted
In short: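 Purified human 12hLO (150 nM final) in 25 mM Hepes, 0.01% Triton X-100, pH 7.0 was preincubated 15 min at room temperature with compound. Then 40 uM arachidonic acid was added, 30 min. Hydroperoxide was read by Fe-XO absorbance ratio 573/405 nm.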
% is set by controls: 0 for no effect and ±100 for the full control effect; potency is the fitted concentration of half-maximal effect.

Protein sequences, listed by entry. Tags and fused reporters are not part of them. Lines headed by an entry give the natural chain unless they say otherwise; changes in a name come on top.
UniProt P18054: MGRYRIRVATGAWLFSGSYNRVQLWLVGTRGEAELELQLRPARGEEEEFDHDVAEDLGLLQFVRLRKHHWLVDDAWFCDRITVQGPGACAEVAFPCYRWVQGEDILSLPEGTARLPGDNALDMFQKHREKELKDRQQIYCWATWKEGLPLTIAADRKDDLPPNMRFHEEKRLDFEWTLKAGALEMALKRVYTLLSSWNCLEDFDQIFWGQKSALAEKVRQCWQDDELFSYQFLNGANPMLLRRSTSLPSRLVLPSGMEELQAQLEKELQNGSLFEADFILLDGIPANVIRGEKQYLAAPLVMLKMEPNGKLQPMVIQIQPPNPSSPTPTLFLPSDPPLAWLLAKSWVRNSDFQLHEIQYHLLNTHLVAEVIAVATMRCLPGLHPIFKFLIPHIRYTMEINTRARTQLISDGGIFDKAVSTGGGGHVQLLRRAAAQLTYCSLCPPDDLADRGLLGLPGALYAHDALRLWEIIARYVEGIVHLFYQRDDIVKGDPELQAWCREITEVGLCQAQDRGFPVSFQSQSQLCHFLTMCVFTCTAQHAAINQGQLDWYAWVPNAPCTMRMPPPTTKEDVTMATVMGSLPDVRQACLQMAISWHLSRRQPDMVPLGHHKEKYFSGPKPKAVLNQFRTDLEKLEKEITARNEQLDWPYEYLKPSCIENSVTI

Compound	Potency	activity change, negative = inhibition
COc1cccc(/C=C2\C(=O)C(=O)c3ccccc32)c1	inconclusive: 28.2 µM [inhibitor, partial curve]	
CC1(COc2ccc3[nH]ccc3c2)COc2ccc(C(=O)NCc3cccs3)cc2N1 (centres undefined)		inactive: 7.13% [at 176 µM]
Cc1ccc(S(=O)(=O)NC[C@H]2O[C@@H](CC(=O)N3CCN(c4ccccc4)CC3)[C@H](O)[C@@H]2O)cc1	inconclusive: 22.4 µM [inhibitor, full curve]	
O=C(CSc1ccc2c(c1)OCCCO2)c1c[nH]c2ccccc12	inconclusive: 11.2 µM [inhibitor, full curve, poor fit]	
CC1CCN(S(=O)(=O)c2cc(F)ccc2CN2C(=O)c3cccnc3C2=O)CC1	inconclusive: 63.1 µM [inhibitor, partial curve, poor fit]	
CCN1CCN(c2ccc(NC(=O)c3cccc(C(F)(F)F)c3)cc2)CC1	inconclusive: 44.7 µM [inhibitor, partial curve]	
NNS(=O)(=O)c1ccc(N2CCCC2=O)c([N+](=O)[O-])c1	inconclusive: 39.8 µM [inhibitor, partial curve]	
CCN(c1ccc(NC(=O)COC(=O)c2ccc(C)c(S(=O)(=O)N3CCOCC3)c2)cc1)C(C)C		inactive: -4.69%
O=C(COc1ccc(Br)cc1Br)NC1CCCC1		inactive: -3.07%
CCCCCCCCC#CC#Cc1cccc(C(=O)O)c1	inconclusive: 89.1 µM [inhibitor, single point]	
CC(C)c1ccc(/C=N/NC(=O)Cc2cccc3ccccc23)cc1	inconclusive: 70.8 µM [inhibitor, partial curve, poor fit]	
CCOc1ccc(CN(C)C(=O)Cn2cnc3c(cnn3C)c2=O)cc1OC		inactive: 28.9%
CC(Cc1c[nH]c2ccccc12)C(=O)O (centres undefined)	inconclusive: 39.8 µM [inhibitor, partial curve, poor fit]	
Cc1ccc(OC2=NS(=O)(=O)c3ccccc32)cc1	inconclusive: 39.8 µM [inhibitor, partial curve, poor fit]	
Cc1ccc(-c2csc(C(C)(O)c3ccc(F)c(F)c3)n2)cc1C (centres undefined)	inconclusive: 56.2 µM [inhibitor, partial curve, poor fit]	
O=C(NCc1ccccc1Cl)C1CCCN1S(=O)(=O)c1ccc(F)cc1 (centres undefined)	inconclusive: 100 µM [inhibitor, single point]	
CN(c1nnc(NC(=O)Nc2ccccc2C(F)(F)F)s1)C1CCCCC1	inconclusive: 141 µM [inhibitor, partial curve, poor fit]	
O=C(OCCOc1ccc(Br)cc1)c1ccc(Cl)nc1		inactive: -2.6%
Cc1cnc(C(=O)NC2C[C@H]3CC[C@@H](C2)N3C(=O)CC2CCCCC2)cn1 (some centres undefined)		inactive: -1.45%
CCOC(=O)C1(C)CCCN(C(=O)c2cc(C)on2)C1 (centres undefined)		inactive: 10%
N#Cc1ccccc1OCC(=O)OCC(=O)Nc1ccc2c(c1)OCO2	inconclusive: 112 µM [inhibitor, single point]	
Cc1cc(C)c(OCCCNC2CCCC2)c(Br)c1	inconclusive: 0.355 µM [inhibitor, full curve, poor fit]	

In the list so far, these have an NH in an aromatic ring.
Compound	Potency	activity change, negative = inhibition
CC1(COc2ccc3[nH]ccc3c2)COc2ccc(C(=O)NCc3cccs3)cc2N1 (centres undefined)		inactive: 7.13% [at 176 µM]
O=C(CSc1ccc2c(c1)OCCCO2)c1c[nH]c2ccccc12	inconclusive: 11.2 µM [inhibitor, full curve, poor fit]	
CC(Cc1c[nH]c2ccccc12)C(=O)O (centres undefined)	inconclusive: 39.8 µM [inhibitor, partial curve, poor fit]	

(further entries)

Compound	Potency	activity change, negative = inhibition
CCc1ccc(OC(=O)CSc2nnc(-c3ccc(OC)c(OC)c3)o2)cc1		inactive: -1.68%
CCOc1cc(/C=C2/N=C(c3ccc4c(c3)OCO4)OC2=O)ccc1OC(C)=O	inconclusive: 79.4 µM [inhibitor, partial curve, poor fit]	
O=S1(=O)N[C@H](Cc2ccccc2)COc2cc(N3CCCCC3)ccc21	inconclusive: 89.1 µM [inhibitor, single point]	
Cc1nn(CC(=O)Nc2ccc3c(c2)nc2n3CCN(C3CCCCC3)C2)c(=O)c2ccccc12	inactive and inconclusive: 35.5 µM [inhibitor, partial curve, poor fit]	
CCCOc1cccc(C2/C(=C(/O)c3ccc(OC)cc3)C(=O)C(=O)N2CCN(C)C)c1 (centres undefined)	inconclusive: 44.7 µM [inhibitor, single point]	
NNC(=S)NCc1ccc2c(c1)OCO2		inactive: -26%
COc1ccc(C=C2SC(=S)NC2=O)cc1		inactive: -26.2%
CC(Oc1ccccc1)C(=O)Nc1cccc(-c2cn3cccnc3n2)c1 (centres undefined)	inconclusive: 112 µM [inhibitor, partial curve, poor fit]	
Cn1ccnc1CN1C(=O)CO[C@H]2CN(C(=O)c3ccccn3)C[C@H]21		inactive: 26.5% [at 176 µM]
CCNC(=O)c1ccc2c(c1)sc1nc(-c3cccc(OC)c3)cn12	inconclusive: 141 µM [inhibitor, partial curve, poor fit]	
CCCN(C)Cc1ccc2c(c1)OCO2	inconclusive: 31.6 µM [inhibitor, single point]	
COc1ccc(S(=O)(=O)N2CCOCC2)cc1NC(=O)c1ccc(Cl)cc1		inactive: -4.2%
O=C1Nc2ccc(S(=O)(=O)NCc3ccco3)c3cccc1c23	inconclusive: 63.1 µM [inhibitor, partial curve, poor fit]	
O=C(Nc1ccccc1)N1c2ccccc2Sc2ccccc21		inactive: -24.5%
CCOC(=O)Cc1csc(SCc2cc(=O)oc3cc(O)ccc23)n1	inconclusive: 112 µM [inhibitor, partial curve, poor fit]	
COc1ccc(CNC(=O)N2CCc3nc(Nc4cc(OC)c(OC)c(OC)c4)ncc3C2)cc1	inconclusive: 50.1 µM [inhibitor, partial curve, poor fit]	
Cc1ccc(CN2CCSc3ccc(C(=O)NCc4ccccn4)cc32)cc1		inactive: -4.66%
CC(Sc1ncccc1Cl)C(=O)NC(C)(C)C (centres undefined)		inactive: 12%
CCN(CC)C(=O)CN(C)C(=O)Nc1cccc(Cl)c1	inconclusive: 39.8 µM [inhibitor, partial curve, poor fit]	
CC1CCc2c(sc(NS(=O)(=O)c3ccccc3)c2C(=O)OC(C)C)C1 (centres undefined)		inactive: -58.1%
CCOc1ccc(/C=N/OCC(=O)Nc2ccc(OCc3ccccc3)cc2)cc1OC		inactive: -13.1%
CCCNC(=O)N(C)C[C@@H]1Oc2ncc(-c3ccncc3)cc2C(=O)N([C@H](C)CO)C[C@@H]1C	inconclusive: 39.8 µM [inhibitor, partial curve, poor fit]	

— PubChem BioAssay AID1671190 (National Center for Advancing Translational Sciences (NCATS), 2021)
